This assay concerns the target BSA (UniProt P02769). The assay is described as follows: ELISA, biotinylated control peptide on immobilized BSA (non-specific).

Sequences of proteins named here, by UniProt entry; tags and fusion partners are left off. Residues count along the entry.
UniProt P02769, residues 25-607: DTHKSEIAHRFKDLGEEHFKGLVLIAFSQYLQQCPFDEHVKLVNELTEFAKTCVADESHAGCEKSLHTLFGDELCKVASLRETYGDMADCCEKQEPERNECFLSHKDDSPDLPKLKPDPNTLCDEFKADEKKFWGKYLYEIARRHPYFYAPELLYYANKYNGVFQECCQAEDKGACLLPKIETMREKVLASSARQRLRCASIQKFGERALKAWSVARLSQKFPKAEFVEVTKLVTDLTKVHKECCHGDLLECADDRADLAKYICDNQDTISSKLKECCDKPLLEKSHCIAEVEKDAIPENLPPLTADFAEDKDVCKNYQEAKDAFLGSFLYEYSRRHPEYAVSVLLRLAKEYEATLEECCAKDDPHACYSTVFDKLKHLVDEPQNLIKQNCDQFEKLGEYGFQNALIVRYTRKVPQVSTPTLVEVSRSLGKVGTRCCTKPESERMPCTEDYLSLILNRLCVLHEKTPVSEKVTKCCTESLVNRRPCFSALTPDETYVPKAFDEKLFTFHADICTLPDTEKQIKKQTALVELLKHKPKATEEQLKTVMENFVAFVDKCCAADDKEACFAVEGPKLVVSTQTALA

No constants are given. Whether binding was seen depends on the method and setting. Some entries that bind do so weakly or less than the wild type.

Consider one molecule from US8258256.

On to QMARIPKRLARHK (biotin on the C-terminal Lys) [non-selected control peptide …-biotin], for which the binding entry is “binds”.
